# The list is a part of this screen's results and no random one: it is rich in T/C values a quarter to a half above the control, in often repeated tests (any T/C) and in doses without a T/C. Further doses and runs are listed elsewhere. T/C is the treated group as % of the vehicle group. Some entries give survivors of the animals treated and no T/C: the source files T/C as zero there, which appears to mark a toxic dose or a test without result, not a measured value. Some survivor counts are full or nearly so, which does not show that the dose was tolerated: the source hardly ever lists a survival T/C far under the control, and the zero likely stands for such cases as well. Survivors were counted at the toxicity check, usually on the fifth day, unless a day is given; later deaths do not show. Schedule codes are those of the source, read here as Q, the interval in days (D) or hours (H), X, the number of doses. Some entries were tested several times; the values are given in rising order. Where survival is the endpoint, this PubChem deposit counts one and a half times the control or more as active, and values a quarter to a half above the control carry no call in these data; other NCI protocols may use other cut-offs.
# Tested on: P388 leukemia ip, CD2F1 mice, survival T/C
# Assay: NCI In Vivo Anticancer Drug Screen. Data for tumor model P388 Leukemia (intraperitoneal) in CD2F1 (CDF1) mice
# Settings: T/C endpoint: median survival time, higher T/C = longer survival
# [1] = dose: 60.0 mg/kg/injection, schedule: Q01DX005 (ip), vehicle: saline with Tween-80
# [2] = dose: 120.0 mg/kg/injection, schedule: Q01DX005 (ip), vehicle: saline with Tween-80
# [3] = dose: 240.0 mg/kg/injection, schedule: Q01DX005 (ip), vehicle: saline with Tween-80
# [4] = dose: 100.0 mg/kg/injection, schedule: Q01DX005 (ip), vehicle: saline with Tween-80
# [5] = dose: 200.0 mg/kg/injection, schedule: Q01DX005 (ip), vehicle: saline with Tween-80
# [6] = dose: 100.0 mg/kg/injection, schedule: Q01DX009 (ip), vehicle: saline with Tween-80
# [7] = dose: 200.0 mg/kg/injection, schedule: Q01DX009 (ip), vehicle: saline with Tween-80
# [8] = dose: 200.0 mg/kg/injection, schedule: Q01DX005 (ip), vehicle: saline
smiles,measurement,setting,value
CC1=NCCN1CCNC(=O)c1ccc(C(=O)NCCN2CCN=C2C)cc1,survivor count,"dose: 15.0 mg/kg/injection, schedule: Q01DX005 (ip), vehicle: saline with Tween-80",0 of 6
same,survivor count,"dose: 30.0 mg/kg/injection, schedule: Q01DX005 (ip), vehicle: saline with Tween-80",0 of 6
same,survivor count,[1],0 of 6
same,survivor count,[2],0 of 6
same,survivor count,[3],0 of 6
Cn1cccc1C(C=C(c1ccccc1)c1ccccc1)c1cccn1C,survivor count,[4],6 of 6
same,survivor count,[5],6 of 6
Cc1nn(-c2ccc(Cl)cc2)c2nc(N)nc(N)c12,survivor count,"dose: 25.0 mg/kg/injection, schedule: Q04DX002 (ip), vehicle: Klucel (hydroxypropylcellulose) (HPC)",6 of 6
CNC(=O)OCc1c(COC(=O)NC)c(-c2ccc(-c3ccccc3)cc2)n(C)c1C,T/C,"dose: 1.88 mg/kg/injection, schedule: Q01DX009 (ip), vehicle: distilled water + Tween-80",135 % of control
same,T/C,"dose: 3.75 mg/kg/injection, schedule: Q01DX009 (ip), vehicle: distilled water + Tween-80",144 % of control
same,T/C,"dose: 7.5 mg/kg/injection, schedule: Q01DX009 (ip), vehicle: distilled water + Tween-80",144 % of control
same,T/C,"dose: 30.0 mg/kg/injection, schedule: Q01DX009 (ip), vehicle: distilled water + Tween-80",144 % of control
same,survivor count,"dose: 40.0 mg/kg/injection, schedule: Q01DX009 (ip), vehicle: distilled water + Tween-80",5 of 6
CCN(CC)CC(C)C1NS(=O)(=O)c2ccccc21 (stereo not drawn),survivor count,"dose: 12.5 mg/kg/injection, schedule: Q01DX009 (ip), vehicle: saline",6 of 6
same,survivor count,[6],6 of 6
same,survivor count,[7],3 of 6
CCCCC1C2C(S(=O)(=O)c3ccccc3)=NOC2C=CN1C(C)=O (stereo not drawn),T/C,[1],"86, 99, 109, 110 % of control"
same,survivor count,[2],4 of 6
same,survivor count,[3],0 of 6
CCC(C)N(CCNc1cc(OC)cc2cccnc12)CCC(C)C (stereo not drawn),survivor count,[8],0 of 5
CCOC(=O)C1Cc2c([nH]c(=O)[nH]c2=O)OC1c1cccc(Cl)c1 (stereo not drawn),survivor count,"dose: 50.0 mg/kg/injection, schedule: Q01DX009 (ip), vehicle: saline with Tween-80",6 of 6
same,survivor count,[6],6 of 6
same,survivor count,[7],6 of 6
O=C(NC1CCCCC1)OCc1c(COC(=O)NC2CCCCC2)c2cccn2c2c1cnn2-c1ccccc1,survivor count,[1],5 of 6 and 6 of 6
C#CCn1cnc2c(=S)nc[nH]c21,survivor count,"dose: 266.0 mg/kg/injection, schedule: Q01DX009 (ip), vehicle: saline with Tween-80",6 of 6
same,survivor count,"dose: 400.0 mg/kg/injection, schedule: Q01DX009 (ip), vehicle: saline with Tween-80",6 of 6
O=C(O)c1ccnc2c1ccc1ccccc12,survivor count,"dose: 400.0 mg/kg/injection, schedule: Q04DX002 (ip), vehicle: Klucel (hydroxypropylcellulose) (HPC)",0 of 5
O=C1c2ccccc2-c2c1nc1ccccc1[n+]2[O-],survivor count,"dose: 50.0 mg/kg/injection, schedule: Q01DX005 (ip), vehicle: saline",0 of 6
same,survivor count,"dose: 100.0 mg/kg/injection, schedule: Q01DX005 (ip), vehicle: saline",0 of 6
same,survivor count,[8],0 of 6
O=C1C(C(=NC2CCCCC2)c2ccccc2)=C(O)c2ccccc21,survivor count,"dose: 400.0 mg/kg/injection, schedule: Q04DX002 (ip), vehicle: saline with Tween-80",2 of 6
COc1ccc2[nH]c(=O)c(C#N)c(C)c2c1,survivor count,[4],3 of 6
same,survivor count,[5],1 of 6
